This continues a long series; more values of the same kind are listed elsewhere.
System: L. major lysate proteins
Assay: Multitargeted bead mixture chemoproteomics, single concentration competition, proteome-wide
Type: binding

With `Nc1nc2c(c(=O)[nH]1)N(C=O)C(CNc1ccc(C(=O)N[C@@H](CCC(=O)O)C(=O)O)cc1)CN2` (stereo partly drawn) [LEU, leucovorin] the “fold change vs vehicle control” value (protein LMJF.32.0400 ATP-DEPENDENT RNA HELICASE, PUTATIVE) was 1.03, the “fold change vs vehicle control” value (protein LMJF.32.0520 PROFILIN, PUTATIVE) was 0.94 and the fold change (protein LMJF.32.1000 CHAPERONIN CONTAINING T-COMPLEX PROTEIN, PUTATIVE, vehicle control = 1) was 0.94. The fold change (protein LMJF.32.3010 HYPOTHETICAL PROTEIN, CONSERVED,LEUCINE-RICH REPEAT PROTEIN, PUTATIVE, vehicle control = 1) was 0.99, the fold change (protein LMJF.32.3270 […] SUBUNIT, PUTATIVE, vehicle control = 1) was 1.03 and the fold change (protein LMJF.32.3310 DIHYDROLIPOAMIDE DEHYDROGENASE, PUTATIVE, vehicle control = 1) was 1.1. For the same molecule, the fold change (protein LMJF.33.2060 HYPOTHETICAL PROTEIN, CONSERVED, vehicle control = 1) was 0.97, the fold change (protein LMJF.33.2300 UDP-GLC 4'-EPIMERASE, PUTATIVE, vehicle control = 1) was 1.04 and the fold change (protein LMJF.33.2390 HEAT SHOCK PROTEIN, PUTATIVE, vehicle control = 1) was 1.11. The fold change (protein LMJF.33.2410 HYPOTHETICAL PROTEIN, CONSERVED, vehicle control = 1) was 0.93, the fold change (protein LMJF.34.0840 T[…] 1-BETA, PUTATIVE, vehicle control = 1) was 1.14 and the fold change (protein LMJF.34.0930 HYPOTHETICAL PROTEIN, CONSERVED, vehicle control = 1) was 0.99. It also gave a fold change (protein LMJF.34.2340 ASPARAGINYL-TRNA SYNTHETASE, PUTATIVE, vehicle control = 1) of 1.07, a fold change (protein LMJF.34.2610 ATP-DEPENDENT DNA HELICASE, PUTATIVE,RUVB DNA HELICASE-LIKE PROTEIN, PUTATIVE, vehicle control = 1) of 1.08 and a fold change (protein LMJF.34.2820 REGULATORY SUBUNIT OF PROTEIN KINASE A-LIKE PROTEIN, vehicle control = 1) of 0.81. It also gave a fold change (protein LMJF.34.3500 RUVB-LIKE 1 DNA HELICASE, PUTATIVE, vehicle control = 1) of 0.83, a fold change (protein LMJF.34.3670 VACUOLAR ATP SYNTHASE CATALYTIC SUBUNIT A, PUTATIVE, vehicle control = 1) of 0.94 and a fold change (protein LMJF.34.4120 HYPOTHETICAL PROTEIN, CONSERVED, vehicle control = 1) of 0.94. For the same molecule, the fold change (protein LMJF.35.0030 PYRUVATE KINASE, vehicle control = 1) was 1.16, the fold change (protein LMJF.35.0240 60S RIBOSOMAL PROTEIN L30, vehicle control = 1) was 1.01 and the fold change (protein LMJF.35.0760 CBS DOMAIN PROTEIN, CONSERVED, vehicle control = 1) was 0.96. For the same molecule, the fold change (protein LMJF.35.0820 ASPARTATE AMINOTRANSFERASE, PUTATIVE, vehicle control = 1) was 0.92, the fold change (protein LMJF.35.1130 OLIGOSACCHARYL TRANSFERASE SUBUNIT, PUTATIVE, vehicle control = 1) was 0.84 and the “fold change vs vehicle control” value (protein LMJF.35.1410 THREONYL-TRNA SYNTHETASE, PUTATIVE) was 0.94. The fold change (protein LMJF.35.1720 CYCLOPHILIN 14, PUTATIVE, vehicle control = 1) was 1.05, the fold change (protein LMJF.35.2730 ACYL-COA DEHYDROGENASE, PUTATIVE, vehicle control = 1) was 0.95 and the fold change (protein LMJF.35.3080 GLYCEROL KINASE, GLYCOSOMAL, PUTATIVE, vehicle control = 1) was 1.01. The fold change (protein LMJF.35.3100 ATP-DEPENDENT RNA HELICASE, PUTATIVE, vehicle control = 1) was 1.05, the fold change (protein LMJF.35.3230 C[…] LYASE, PUTATIVE, vehicle control = 1) was 1.11 and the fold change (protein LMJF.35.3790 60S RIBOSOMAL PROTEIN L23, PUTATIVE, vehicle control = 1) was 1.02. For the same molecule, the fold change (protein LMJF.35.4130 POLY(A)-BINDING PROTEIN 2, vehicle control = 1) was 1.06, the fold change (protein LMJF.35.4850 […] 1 SUBUNIT, PUTATIVE, vehicle control = 1) was 1.03 and the fold change (protein LMJF.36.0180 […] 2, vehicle control = 1) was 1.14. The fold change (protein LMJF.36.0210 SET DOMAIN PROTEIN, PUTATIVE, vehicle control = 1) was 1.12, the fold change (protein LMJF.36.0740 HYPOTHETICAL PROTEIN, CONSERVED, vehicle control = 1) was 0.98 and the “fold change vs vehicle control” value (protein LMJF.36.0900 PROTEIN KINASE, PUTATIVE,SNF1-RELATED PROTEIN KINASES, PUTATIVE) was 0.81. It also gave a fold change (protein LMJF.36.1430 TRANSLATION ELONGATION FACTOR 1-BETA, PUTATIVE, vehicle control = 1) of 0.95, a fold change (protein LMJF.36.1940 INOSINE-GUANOSINE TRANSPORTER, vehicle control = 1) of 1.04 and a fold change (protein LMJF.36.2020 CHAPERONIN HSP60, MIT[…], vehicle control = 1) of 1.14. For the same molecule, the “fold change vs vehicle control” value (protein LMJF.36.3530 POLYUBIQUITIN, PUTATIVE) was 1.03, the fold change (protein LMJF.36.4360 […] SUBUNIT, vehicle control = 1) was 1.04 and the fold change (protein LMJF.36.4420 60S RIBOSOMAL PROTEIN L22, PUTATIVE, vehicle control = 1) was 0.91. For the same molecule, the fold change (protein LMJF.36.4460 HYPOTHETICAL PROTEIN, CONSERVED, vehicle control = 1) was 0.99, the fold change (protein LMJF.36.5940 HYPOTHETICAL PROTEIN, CONSERVED, vehicle control = 1) was 0.99 and the fold change (protein LMJF.36.6910 T-COMPLEX PROTEIN 1, THETA SUBUNIT, PUTATIVE,CHAPERONIN, PUTATIVE, vehicle control = 1) was 0.98. The fold change (protein LMJF.36.6980 EUKARYOTIC TRANSLATION INITIATION FACTOR 3 SUBUNIT 8, PUTATIVE, vehicle control = 1) was 0.98, the fold change (vs vehicle control, protein CLM00008612.1 UNNAMED PROTEIN PRODUCT) was 0.85 and the fold change (vs vehicle control, protein LINJ.20.0820 VESICLE-FUSING ATPASE, PUTATIVE,N-ETHYLMALEIMIDE-SENSITIVE FACTOR, PUTATIVE) was 0.96. For the same molecule, the fold change (vs vehicle control, protein LINJ.36.1160 RIBOSOMAL PROTEIN L24, PUTATIVE) was 0.97, the fold change (vs vehicle control, protein LMJF.02.0370 PROTEASOME REGULATORY NON-ATPASE SUBUNIT 6, PUTATIVE) was 0.89 and the fold change (vs vehicle control, protein LMJF.05.0380 MICROTUBULE-ASSOCIATED PROTEIN, PUTATIVE) was 0.92. For the same molecule, the fold change (vs vehicle control, protein LMJF.05.0780 HYPOTHETICAL PROTEIN, CONSERVED) was 1, the fold change (vs vehicle control, protein LMJF.06.0010 HISTONE H4) was 0.78 and the fold change (vs vehicle control, protein LMJF.06.0370 GLUTAMINE SYNTHETASE, PUTATIVE) was 0.96. It also gave a fold change (vs vehicle control, protein LMJF.07.0460 ACYL-COA DEHYDROGENASE, MITOCHONDRIAL PRECURSOR, PUTATIVE) of 1.58, a fold change (vs vehicle control, protein LMJF.08.1222 HYPOTHETICAL PROTEIN, CONSERVED) of 0.73 and a fold change (vs vehicle control, protein LMJF.10.0510 GLYCEROL-3-PHOSPHATE DEH[…] ], GLYCOSOMAL) of 1.06. For the same molecule, the fold change (vs vehicle control, protein LMJF.10.0910 SMALL GTP-BINDING PROTEIN RAB11, PUTATIVE) was 0.95, the fold change (vs vehicle control, protein LMJF.11.0130 NGG1 I[…] 3-LIKE PROTEIN) was 0.99 and the fold change (vs vehicle control, protein LMJF.11.0480 HY[…], CONSERVED) was 0.74. It also gave a fold change (vs vehicle control, protein LMJF.11.1100 LANOSTEROL 14-ALPHA-DEMETHYLASE, PUTATIVE) of 0.88, a fold change (vs vehicle control, protein LMJF.11.1190 40S RIBOSOMAL PROTEIN S15A, PUTATIVE) of 0.97 and a fold change (vs vehicle control, protein LMJF.13.1360 HYPOTHETICAL PROTEIN, CONSERVED) of 0.71. For the same molecule, the fold change (vs vehicle control, protein LMJF.14.0130 INOSINE-GUANINE NUCLEOSIDE HYDROLASE, PUTATIVE) was 0.97, the fold change (vs vehicle control, protein LMJF.14.1320 SERINE […] (SHMT-S)) was 1.02 and the fold change (vs vehicle control, protein LMJF.15.0190 HYPOTHETICAL PROTEIN, CONSERVED) was 1.

— PMC6199744, “Development of Chemical Proteomics for the Folateome and Analysis of the Kinetoplastid Folateome” (ACS Infectious Diseases, 2018)
